Measurements reported in the supplement of paper PMC10849652.
The other results are listed elsewhere or left out.

Sequences of proteins named here, by UniProt entry; tags and fusion partners are left off. A change or cut given only in a name is not applied to a line headed by its entry.
UniProt Q8N6L1: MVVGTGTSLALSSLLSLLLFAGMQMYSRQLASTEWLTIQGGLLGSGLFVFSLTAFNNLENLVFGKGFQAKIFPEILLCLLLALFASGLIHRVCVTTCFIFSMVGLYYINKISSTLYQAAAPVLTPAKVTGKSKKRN
UniProt Q92945: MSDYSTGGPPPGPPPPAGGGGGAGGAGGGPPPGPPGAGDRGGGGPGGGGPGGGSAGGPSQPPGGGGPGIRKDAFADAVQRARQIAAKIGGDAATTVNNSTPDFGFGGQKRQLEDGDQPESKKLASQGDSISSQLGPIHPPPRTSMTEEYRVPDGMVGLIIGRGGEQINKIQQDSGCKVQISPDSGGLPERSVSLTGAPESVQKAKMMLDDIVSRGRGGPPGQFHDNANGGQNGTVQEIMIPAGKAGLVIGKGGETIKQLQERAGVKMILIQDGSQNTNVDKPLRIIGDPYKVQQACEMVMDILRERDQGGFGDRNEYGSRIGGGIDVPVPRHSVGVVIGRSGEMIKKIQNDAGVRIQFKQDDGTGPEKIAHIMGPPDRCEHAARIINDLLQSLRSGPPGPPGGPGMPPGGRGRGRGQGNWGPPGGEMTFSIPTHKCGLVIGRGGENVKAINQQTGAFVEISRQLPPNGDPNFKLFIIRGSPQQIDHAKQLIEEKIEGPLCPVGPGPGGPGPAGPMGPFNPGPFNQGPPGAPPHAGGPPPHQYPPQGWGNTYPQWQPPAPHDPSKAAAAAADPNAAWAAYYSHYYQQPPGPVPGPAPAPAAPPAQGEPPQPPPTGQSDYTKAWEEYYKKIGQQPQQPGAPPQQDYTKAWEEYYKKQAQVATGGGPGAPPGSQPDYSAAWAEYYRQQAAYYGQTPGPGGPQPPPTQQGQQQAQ
UniProt O75037: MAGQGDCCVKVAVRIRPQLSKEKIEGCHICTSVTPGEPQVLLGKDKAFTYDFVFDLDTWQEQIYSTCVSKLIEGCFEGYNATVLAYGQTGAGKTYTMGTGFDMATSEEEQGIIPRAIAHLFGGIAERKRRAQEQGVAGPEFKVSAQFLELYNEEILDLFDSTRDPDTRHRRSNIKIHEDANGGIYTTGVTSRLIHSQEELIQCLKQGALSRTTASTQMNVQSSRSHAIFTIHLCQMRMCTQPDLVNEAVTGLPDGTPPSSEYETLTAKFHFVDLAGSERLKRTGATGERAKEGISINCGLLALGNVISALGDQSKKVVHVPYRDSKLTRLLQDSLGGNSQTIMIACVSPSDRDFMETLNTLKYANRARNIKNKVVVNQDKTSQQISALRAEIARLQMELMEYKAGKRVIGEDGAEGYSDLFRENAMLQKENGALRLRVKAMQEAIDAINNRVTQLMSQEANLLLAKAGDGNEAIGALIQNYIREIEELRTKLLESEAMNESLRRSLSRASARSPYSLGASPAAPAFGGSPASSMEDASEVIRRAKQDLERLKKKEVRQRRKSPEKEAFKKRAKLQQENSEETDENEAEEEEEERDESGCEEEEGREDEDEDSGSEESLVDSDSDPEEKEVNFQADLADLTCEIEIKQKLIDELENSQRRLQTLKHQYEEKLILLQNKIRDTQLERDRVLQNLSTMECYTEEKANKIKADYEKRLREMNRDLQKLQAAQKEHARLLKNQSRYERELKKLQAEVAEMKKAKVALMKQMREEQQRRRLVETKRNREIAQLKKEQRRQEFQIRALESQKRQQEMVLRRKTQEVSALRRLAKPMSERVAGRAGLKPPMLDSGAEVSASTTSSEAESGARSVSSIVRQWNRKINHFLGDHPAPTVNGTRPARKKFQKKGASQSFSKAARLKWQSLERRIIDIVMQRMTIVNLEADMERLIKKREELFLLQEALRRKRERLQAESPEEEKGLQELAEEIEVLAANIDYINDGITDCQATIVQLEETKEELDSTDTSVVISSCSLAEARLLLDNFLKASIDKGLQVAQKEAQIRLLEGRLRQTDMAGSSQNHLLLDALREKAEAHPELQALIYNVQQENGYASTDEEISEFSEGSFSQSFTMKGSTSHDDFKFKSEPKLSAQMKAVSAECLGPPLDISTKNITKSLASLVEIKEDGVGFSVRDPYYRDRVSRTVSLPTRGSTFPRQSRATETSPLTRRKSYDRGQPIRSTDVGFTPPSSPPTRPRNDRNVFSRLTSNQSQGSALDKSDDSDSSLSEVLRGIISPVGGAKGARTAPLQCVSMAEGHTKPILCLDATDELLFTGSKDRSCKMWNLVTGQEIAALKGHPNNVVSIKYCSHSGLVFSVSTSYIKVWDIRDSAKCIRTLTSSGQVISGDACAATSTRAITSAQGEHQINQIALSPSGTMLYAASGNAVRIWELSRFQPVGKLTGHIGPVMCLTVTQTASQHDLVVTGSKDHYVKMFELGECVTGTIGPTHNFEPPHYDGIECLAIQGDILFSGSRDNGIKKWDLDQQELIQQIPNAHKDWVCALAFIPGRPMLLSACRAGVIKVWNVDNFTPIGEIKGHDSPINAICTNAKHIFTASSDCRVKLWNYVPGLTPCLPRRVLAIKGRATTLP
UniProt O95239: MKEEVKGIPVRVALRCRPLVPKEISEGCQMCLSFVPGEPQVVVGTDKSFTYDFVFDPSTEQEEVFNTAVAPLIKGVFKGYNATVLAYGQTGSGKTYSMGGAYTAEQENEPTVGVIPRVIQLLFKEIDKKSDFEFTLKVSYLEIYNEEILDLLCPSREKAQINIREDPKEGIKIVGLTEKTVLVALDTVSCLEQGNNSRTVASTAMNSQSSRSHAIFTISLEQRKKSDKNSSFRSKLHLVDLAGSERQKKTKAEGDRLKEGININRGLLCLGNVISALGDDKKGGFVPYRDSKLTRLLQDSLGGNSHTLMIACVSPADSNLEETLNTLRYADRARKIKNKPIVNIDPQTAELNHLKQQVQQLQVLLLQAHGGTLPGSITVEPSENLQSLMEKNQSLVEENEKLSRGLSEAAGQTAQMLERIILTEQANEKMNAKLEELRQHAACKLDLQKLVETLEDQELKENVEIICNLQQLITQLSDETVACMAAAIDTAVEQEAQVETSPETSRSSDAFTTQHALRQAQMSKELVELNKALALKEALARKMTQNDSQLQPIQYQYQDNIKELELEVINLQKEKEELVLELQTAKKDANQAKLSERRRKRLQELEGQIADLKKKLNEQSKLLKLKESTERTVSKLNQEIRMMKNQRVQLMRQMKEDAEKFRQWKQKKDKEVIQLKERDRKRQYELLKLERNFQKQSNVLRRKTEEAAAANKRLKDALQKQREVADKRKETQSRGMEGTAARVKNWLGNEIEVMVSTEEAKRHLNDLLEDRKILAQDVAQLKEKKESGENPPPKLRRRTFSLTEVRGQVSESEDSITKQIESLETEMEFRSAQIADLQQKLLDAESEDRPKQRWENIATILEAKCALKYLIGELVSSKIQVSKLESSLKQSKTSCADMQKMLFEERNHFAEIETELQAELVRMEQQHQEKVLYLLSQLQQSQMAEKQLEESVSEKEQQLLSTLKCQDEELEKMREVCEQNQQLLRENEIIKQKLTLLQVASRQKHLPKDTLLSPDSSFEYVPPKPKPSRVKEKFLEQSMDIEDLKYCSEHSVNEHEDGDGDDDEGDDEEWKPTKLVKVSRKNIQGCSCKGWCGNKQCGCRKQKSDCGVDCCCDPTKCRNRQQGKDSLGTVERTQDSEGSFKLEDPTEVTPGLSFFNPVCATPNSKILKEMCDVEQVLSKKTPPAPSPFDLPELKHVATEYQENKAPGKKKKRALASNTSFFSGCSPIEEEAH
UniProt O00139: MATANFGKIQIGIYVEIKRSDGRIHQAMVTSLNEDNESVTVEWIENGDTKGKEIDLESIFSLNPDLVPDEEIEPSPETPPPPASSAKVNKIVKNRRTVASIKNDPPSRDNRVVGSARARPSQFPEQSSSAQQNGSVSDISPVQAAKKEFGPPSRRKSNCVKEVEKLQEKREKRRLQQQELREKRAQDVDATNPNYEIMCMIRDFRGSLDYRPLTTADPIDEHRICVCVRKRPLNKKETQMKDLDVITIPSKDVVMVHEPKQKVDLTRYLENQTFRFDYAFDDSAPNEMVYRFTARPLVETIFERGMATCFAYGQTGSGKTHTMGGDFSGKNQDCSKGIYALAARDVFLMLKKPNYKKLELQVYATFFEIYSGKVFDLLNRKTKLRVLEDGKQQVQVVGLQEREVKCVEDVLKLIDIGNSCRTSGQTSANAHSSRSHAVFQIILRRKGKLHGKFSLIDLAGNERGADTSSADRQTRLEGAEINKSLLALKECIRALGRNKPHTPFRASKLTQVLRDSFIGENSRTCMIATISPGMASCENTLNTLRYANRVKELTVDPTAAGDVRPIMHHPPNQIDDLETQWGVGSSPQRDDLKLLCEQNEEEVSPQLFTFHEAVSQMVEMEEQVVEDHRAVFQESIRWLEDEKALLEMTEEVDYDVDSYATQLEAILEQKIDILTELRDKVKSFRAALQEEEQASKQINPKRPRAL
UniProt P83111: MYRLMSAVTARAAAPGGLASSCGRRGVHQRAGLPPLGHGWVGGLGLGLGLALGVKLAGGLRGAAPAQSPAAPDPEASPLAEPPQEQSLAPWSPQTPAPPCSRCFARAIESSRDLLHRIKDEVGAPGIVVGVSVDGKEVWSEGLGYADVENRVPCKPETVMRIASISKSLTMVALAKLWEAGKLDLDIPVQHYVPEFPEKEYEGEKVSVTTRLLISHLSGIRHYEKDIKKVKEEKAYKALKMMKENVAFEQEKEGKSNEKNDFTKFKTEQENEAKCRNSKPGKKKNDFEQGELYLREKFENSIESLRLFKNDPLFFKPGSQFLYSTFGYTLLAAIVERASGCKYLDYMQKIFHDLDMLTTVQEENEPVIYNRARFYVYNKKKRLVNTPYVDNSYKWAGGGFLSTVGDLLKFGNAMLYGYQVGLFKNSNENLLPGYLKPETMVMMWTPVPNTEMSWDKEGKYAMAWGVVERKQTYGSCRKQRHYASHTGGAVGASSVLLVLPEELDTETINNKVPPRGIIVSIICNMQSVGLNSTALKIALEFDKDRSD
UniProt P41229: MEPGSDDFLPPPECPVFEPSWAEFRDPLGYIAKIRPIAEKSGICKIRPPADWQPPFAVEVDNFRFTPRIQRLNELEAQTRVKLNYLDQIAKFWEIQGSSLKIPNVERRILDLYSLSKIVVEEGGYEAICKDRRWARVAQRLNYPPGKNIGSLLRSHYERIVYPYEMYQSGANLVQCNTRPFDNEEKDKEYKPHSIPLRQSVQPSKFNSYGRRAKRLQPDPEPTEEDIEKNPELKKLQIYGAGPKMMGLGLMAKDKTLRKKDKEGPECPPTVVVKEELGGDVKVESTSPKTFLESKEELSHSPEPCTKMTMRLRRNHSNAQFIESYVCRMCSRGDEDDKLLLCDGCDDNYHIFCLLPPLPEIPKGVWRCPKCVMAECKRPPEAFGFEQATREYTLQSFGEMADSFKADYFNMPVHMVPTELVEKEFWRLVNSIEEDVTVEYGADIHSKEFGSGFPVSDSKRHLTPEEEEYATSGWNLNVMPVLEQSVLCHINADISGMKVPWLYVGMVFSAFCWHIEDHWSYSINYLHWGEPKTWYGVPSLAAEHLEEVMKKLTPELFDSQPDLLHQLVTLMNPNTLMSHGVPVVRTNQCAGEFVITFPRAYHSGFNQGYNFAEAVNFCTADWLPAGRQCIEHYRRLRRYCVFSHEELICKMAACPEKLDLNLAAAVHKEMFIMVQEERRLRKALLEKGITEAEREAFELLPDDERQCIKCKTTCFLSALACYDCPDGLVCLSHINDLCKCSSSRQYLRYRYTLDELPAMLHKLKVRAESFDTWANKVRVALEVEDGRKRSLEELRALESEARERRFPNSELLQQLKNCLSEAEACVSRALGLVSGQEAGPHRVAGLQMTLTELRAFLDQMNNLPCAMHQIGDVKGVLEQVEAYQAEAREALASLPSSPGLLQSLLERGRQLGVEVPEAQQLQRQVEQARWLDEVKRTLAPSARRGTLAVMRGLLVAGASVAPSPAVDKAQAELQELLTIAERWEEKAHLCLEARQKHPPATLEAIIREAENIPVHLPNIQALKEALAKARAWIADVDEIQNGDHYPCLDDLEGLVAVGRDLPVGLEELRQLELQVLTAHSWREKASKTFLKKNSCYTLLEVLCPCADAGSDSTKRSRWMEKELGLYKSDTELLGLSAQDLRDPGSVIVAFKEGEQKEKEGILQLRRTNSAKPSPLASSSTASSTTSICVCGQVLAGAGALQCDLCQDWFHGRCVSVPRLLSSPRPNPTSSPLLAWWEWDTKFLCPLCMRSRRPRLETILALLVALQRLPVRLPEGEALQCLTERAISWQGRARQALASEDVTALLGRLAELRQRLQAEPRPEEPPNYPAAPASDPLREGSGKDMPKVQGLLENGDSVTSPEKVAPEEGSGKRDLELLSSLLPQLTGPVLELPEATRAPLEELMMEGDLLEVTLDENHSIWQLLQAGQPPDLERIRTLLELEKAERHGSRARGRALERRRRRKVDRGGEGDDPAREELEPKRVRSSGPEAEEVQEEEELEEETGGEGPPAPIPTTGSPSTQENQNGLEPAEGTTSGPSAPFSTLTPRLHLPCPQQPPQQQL

Key:
Assay in all cases: log2 fold change, soluble protein after heating vs DMSO (PISA); higher = thermal stabilisation; K562 lysate, 10 uM; active = over 0.2 and 3.5 SD of the protein, either way, in both replicates (recomputed)
nilotinib = compound: Cc1cn(-c2cc(NC(=O)c3ccc(C)c(Nc4nccc(-c5cccnc5)n4)c3)cc(C(F)(F)F)c2)cn1 [nilotinib]
Summary of the method: (§1)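 To prepare the extract, K562 pellets were dounce-homogenised in PBS pH 7.4 with 1 mM MgCl2, giving crude material at 1 mg/mL protein. This was treated with 10 μM compound for 30 min, then heated in aliquots for 3 min over 48°C-58°C before pooling and addition of NP-40 to 0.5% at 4°C. Centrifugation at 21,000xg for 90 min left soluble protein in the supernatant, which TMTpro 16plex LC-MS/MS quantified with equalised channel sums. Results are log-two fold changes in thermal stability compared with solvent controls, from duplicates.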

[1] = compound: Cc1nc(Nc2n[nH]c3c2CN(C(=O)N[C@H](CN(C)C)c2ccccc2)C3(C)C)c2sccc2n1
Summary of the method: as §1

dasatinib = compound: Cc1nc(Nc2ncc(C(=O)Nc3c(C)cccc3Cl)s2)cc(N2CCN(CCO)CC2)n1 [dasatinib]
Summary of the method: as §1

[2] = compound: Cc1ncc(-c2ccnc(Nc3ccc(S(C)(=O)=O)cc3)n2)n1C(C)C
Summary of the method: as §1

[3] = compound: Cn1cc(-c2ccc3c(c2)CCN3C(=O)Cc2cccc(C(F)(F)F)c2)c2c(N)ncnc21
Summary of the method: as §1

quisinostat = compound: Cn1cc(CNCC2CCN(c3ncc(C(=O)NO)cn3)CC2)c2ccccc21 [quisinostat]
Summary of the method: as §1

tipifarnib = compound: Cn1cncc1[C@@](N)(c1ccc(Cl)cc1)c1ccc2c(c1)c(-c1cccc(Cl)c1)cc(=O)n2C [tipifarnib]
Summary of the method: as §1

[4] = compound: NC(=O)Nc1cc(-c2cccc(F)c2)sc1C(=O)N[C@H]1CCCNC1
Summary of the method: as §1

[5] = compound: NC(=O)c1cnc(N[C@@H]2CCCC[C@@H]2N)nc1Nc1cccc(-n2nccn2)c1
Summary of the method: as §1

[6] = compound: NC1(c2ccc(-c3nc4ccn5c(=O)[nH]nc5c4cc3-c3ccccc3)cc2)CCC1
Summary of the method: as §1

Measured: log2 fold change

L3MBTL2 (UniProt Q969R5)
inactive: nilotinib 0.023 | [1] 0.139 | dasatinib 0.089 | [2] 0.034 | [3] 0.027 | quisinostat 0.089 | tipifarnib -0.215 | [4] -0.034

KIAA0513 (UniProt O60268)
inactive: nilotinib 0.014 | [1] -0.029 | dasatinib 0.042 | [2] 0.036 | [3] -0.02 | quisinostat -0.067 | tipifarnib -0.086 | [4] -0.01 | [5] -0.016 | [6] -0.001

KIFBP (UniProt Q96EK5)
inactive: nilotinib 0.007 | [1] 0.013 | dasatinib -0.038 | [2] -0.009 | [3] 0.025 | quisinostat -0.006 | tipifarnib 0.02 | [4] 0.031 | [5] -0.003 | [6] 0.019

KRTCAP2 isoform 2 (UniProt Q8N6L1)
inactive: nilotinib -0.023 | [1] -0.021 | dasatinib -0.059 | [2] 0.097 | [3] -0.045 | quisinostat -0.158 | tipifarnib 0.007 | [4] 0.022 | [5] 0.024 | [6] 0.044

KIDINS220 isoform 4 (UniProt Q9ULH0)
inactive: nilotinib -0.022 | [1] -0.004 | dasatinib -0.018 | [2] -0.014 | [3] 0.029 | quisinostat -0.041 | tipifarnib -0.019 | [4] 0.001 | [5] 0.038 | [6] 0.055

L3HYPDH (UniProt Q96EM0)
inactive: nilotinib 0.019 | [1] 0.015 | dasatinib 0.073 | [2] 0.001 | [3] -0.003 | quisinostat -0.053 | tipifarnib -0.002 | [4] 0.033 | [5] 0.015 | [6] 0.009

KXD1 (UniProt Q9BQD3)
inactive: nilotinib 0.055 | [1] 0.083 | dasatinib 0.03 | [2] 0.024 | [3] -0.023 | quisinostat 0 | tipifarnib 0.1 | [4] 0.01 | [5] 0.084 | [6] 0.019

KIF20A (UniProt O95235)
inactive: nilotinib 0.028 | [1] -0.076 | dasatinib -0.063 | [2] -0.029 | [3] -0.006 | quisinostat -0.21 | tipifarnib 0.004 | [4] -0.012

KIF1B isoform 2 (UniProt O60333)
inactive: nilotinib -0.004 | [1] 0.012 | dasatinib -0.026 | [2] 0.025 | [3] 0.026 | quisinostat -0.03 | tipifarnib 0.008 | [4] 0.01 | [5] 0.018 | [6] 0.019

KPNA2 (UniProt P52292)
inactive: nilotinib -0.051 | [1] -0.002 | dasatinib -0.041 | [2] 0.018 | [3] 0.039 | quisinostat -0.01 | tipifarnib -0.023 | [4] 0.026 | [5] 0.039 | [6] -0.05

KIAA0930 isoform 2 (UniProt Q6ICG6)
inactive: nilotinib -0.041 | [1] 0.05 | dasatinib 0.202 | [2] -0.109 | [3] -0.021 | quisinostat 0.03 | tipifarnib -0.037 | [4] -0.026 | [5] -0.047

KTI12 (UniProt Q96EK9)
inactive: nilotinib -0.01 | [1] 0.006 | dasatinib -0.062 | [2] 0.017 | [3] 0.054 | quisinostat -0.018 | tipifarnib -0.007 | [4] 0 | [5] 0.023 | [6] 0.042

LAGE3 (UniProt Q14657)
inactive: nilotinib -0.065 | [1] 0.186 | dasatinib 0.006 | [2] -0.055 | [3] 0.021 | quisinostat -0.03 | tipifarnib 0.1 | [4] 0.013 | [5] 0.017 | [6] 0.084

KHSRP (UniProt Q92945)
inactive: nilotinib -0.05 | [1] 0.004 | dasatinib 0.021 | [2] -0.027 | [3] 0.015 | quisinostat 0.105 | tipifarnib -0.001 | [4] 0.004 | [5] -0.009 | [6] 0.019

KIF5A (UniProt Q12840)
inactive: nilotinib -0.001 | [1] -0.028 | dasatinib -0.012 | [2] -0.003 | [3] 0.013 | quisinostat -0.021 | tipifarnib 0.055 | [4] 0 | [5] -0.008 | [6] -0.003

KRAS (UniProt P01116)
inactive: nilotinib 0.034 | [1] -0.014 | dasatinib 0.049 | [2] 0.018 | [3] -0.015 | quisinostat 0.042 | tipifarnib 0.129 | [4] -0.001 | [5] 0.005 | [6] -0.032

LARP7 isoform 3 (UniProt Q4G0J3)
inactive: nilotinib -0.015 | [1] -0.012 | dasatinib -0.008 | [2] 0.013 | [3] 0.021 | quisinostat 0.031 | tipifarnib 0.003 | [4] 0.016 | [5] 0.015 | [6] -0.012

KIAA1191 (UniProt Q96A73)
inactive: nilotinib 0.003 | [1] 0.025 | dasatinib 0.013 | [2] 0.004 | [3] 0.026 | quisinostat 0.012 | tipifarnib 0.072 | [4] 0.006 | [5] 0.064 | [6] 0.003

KDM6A (UniProt O15550)
inactive: nilotinib 0.009 | [1] 0.033 | dasatinib 0.041 | [2] -0.009 | [3] 0.015 | quisinostat -0.062 | tipifarnib -0.031 | [4] 0.002 | [5] -0.017 | [6] 0.009

KYAT1 (UniProt Q16773)
inactive: nilotinib 0.028 | [1] 0.012 | dasatinib 0.006 | [2] -0.007 | [3] 0.008 | quisinostat -0.026 | tipifarnib -0.008 | [4] 0.008 | [5] -0.019 | [6] 0.001

KIF21B (UniProt O75037)
inactive: nilotinib -0.017 | [1] -0.055 | dasatinib -0.134 | [2] -0.191 | [3] -0.005 | quisinostat -0.364 | tipifarnib 0.043 | [4] 0.047 | [5] 0.052

KIFAP3 (UniProt Q92845)
inactive: nilotinib -0.008 | [1] 0.065 | dasatinib -0.055 | [2] -0.218 | [3] 0.008 | quisinostat -0.041 | tipifarnib -0.102 | [4] 0.071

KIF4A (UniProt O95239)
inactive: nilotinib -0.02 | [1] 0.029 | dasatinib -0.011 | [2] 0.014 | [3] 0.037 | quisinostat -0.104 | tipifarnib 0.017 | [4] 0.042 | [5] -0.014 | [6] 0.014

KIF2A isoform 4 (UniProt O00139)
inactive: nilotinib 0.021 | [1] -0.015 | dasatinib -0.022 | [2] -0.02 | [3] 0.042 | quisinostat -0.005 | tipifarnib 0.015 | [4] 0.021 | [5] 0.017 | [6] 0.006

KIF23 isoform 2 (UniProt Q02241)
inactive: nilotinib -0.005 | [1] -0.039 | dasatinib -0.014 | [2] 0.002 | [3] 0.015 | quisinostat -0.108 | tipifarnib 0.021 | [4] -0.001 | [5] 0.033 | [6] -0.007

LACTB (UniProt P83111)
inactive: nilotinib 0.095 | [1] -0.005 | dasatinib 0.035 | [2] 0.003 | [3] -0.011 | quisinostat 0.001 | tipifarnib 0.036 | [4] 0.023 | [5] -0.027 | [6] 0.033

KDM5C (UniProt P41229)
inactive: nilotinib -0.021 | [1] -0.005 | dasatinib -0.032 | [2] 0.022 | [3] 0.033 | quisinostat -0.084 | tipifarnib 0.037 | [4] 0.032 | [5] -0.037 | [6] -0.032

KYNU (UniProt Q16719)
inactive: nilotinib -0.044 | [1] 0.039 | dasatinib 0.19 | [2] -0.103 | [3] -0.058 | quisinostat -0.033 | tipifarnib 0.093 | [4] 0.044 | [5] 0.008 | [6] -0.003

LAMTOR3 (UniProt Q9UHA4)
inactive: nilotinib 0.01 | [1] -0.014 | dasatinib -0.031 | [2] 0.026 | [3] 0 | quisinostat -0.061 | tipifarnib 0.007 | [4] -0.023 | [5] -0.02 | [6] 0.029

KIF13B (UniProt Q9NQT8)
inactive: nilotinib 0.055 | [1] 0.001 | dasatinib -0.006 | [2] -0.02 | [3] 0.002 | quisinostat 0.008 | tipifarnib 0.028 | [4] 0.017 | [5] 0.007 | [6] 0.029

2 entries picked at random from the list so far:
LACTB (UniProt P83111)
inactive: nilotinib 0.095 | [1] -0.005 | dasatinib 0.035 | [2] 0.003 | [3] -0.011 | quisinostat 0.001 | tipifarnib 0.036 | [4] 0.023 | [5] -0.027 | [6] 0.033

KYNU (UniProt Q16719)
inactive: nilotinib -0.044 | [1] 0.039 | dasatinib 0.19 | [2] -0.103 | [3] -0.058 | quisinostat -0.033 | tipifarnib 0.093 | [4] 0.044 | [5] 0.008 | [6] -0.003
